In the supplement of paper PMC10626197:
Counter-ions that a name gives are not always drawn. Some well-known active drugs show little effect in this data set, so a weak value is uncertain.

Tested on: MCF7
Test: cell viability relative to DMSO control (raw), single agent; higher = more viable cells
Conditions: exposure time 72 h
Experimental: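 MCF7 cells, 1000 cells/well in 384-well plates, single-agent wells of drug 2 (drug 1 at 0 µM) within 6x6 combination matrices (1:3 serial dilutions), 72 h at 37 °C. Viability read by CellTiter-Glo luminescence, 3 biological replicates. Normalised viability sets 0% at the highest doxorubicin dose and 100% at the 0,0 µM control per combination.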

COc1cc(Nc2ncc3c(n2)-c2ccc(Cl)cc2C(c2c(F)cccc2OC)=NC3)ccc1C(=O)O [Alisertib]
cell viability [%]
Conditions | plate partner (at 0 µM): Cabazitaxel | plate partner (at 0 µM): Imatinib | plate partner (at 0 µM): Megestrol | plate partner (at 0 µM): Mitoxantrone | plate partner (at 0 µM): Pazopanib | plate partner (at 0 µM): Vemurafenib | plate partner (at 0 µM): Vincristine | plate partner (at 0 µM): ixabepilone
0.0617284 µM | 98.4 | 87.6 | 86.6 | 90.5 | 85.5 | 76.2 | 86.4 | 105
0.185185 µM | 96.5 | 81.1 | 89.8 | 84.1 | 84.6 | 74.8 | 70.4 | 86.6
0.555556 µM | 89.3 | 83.6 | 89 | 87.1 | 89.2 | 86.9 | 91.8 | 101
1.66667 µM | 87.2 | 80.7 | 86.3 | 90 | 85.5 | 82.5 | 87.9 | 106
5 µM | 84.6 | 77.6 | 90.3 | 92.7 | 83.3 | 73.9 | 90.5 | 103

N#CC1(c2ccc(NC(=O)c3cccnc3NCc3ccncc3)cc2)CCCC1 [Apatinib]
cell viability [%]
Conditions | 0.0617284 µM | 0.185185 µM | 0.555556 µM | 1.66667 µM | 5 µM
plate partner (at 0 µM): Erlotinib | 112 | 116 | 114 | 120 | 114
plate partner (at 0 µM): Vemurafenib | 117 | 110 | 121 | 109 | 94.9
plate partner (at 0 µM): ixabepilone | 122 | 113 | 119 | 111 | 108

COc1ccc(CC2c3cc(OC)c(OC)cc3CC[N+]2(C)CCC(=O)OCCCCCOC(=O)CC[N+]2(C)CCc3cc(OC)c(OC)cc3C2Cc2ccc(OC)c(OC)c2)cc1OC (stereo not given) [Atracurium (besylate)]
plate partner (at 0 µM): Imatinib
Conditions | cell viability [%]
0.246914 µM | 100
0.740741 µM | 108
2.22222 µM | 96.2
6.66667 µM | 98
20 µM | 77.8

Cc1c(-c2ccc(O)cc2)n(Cc2ccc(OCCN3CCCCCC3)cc2)c2ccc(O)cc12 [Bazedoxifene (acetate)]
cell viability [%]
Conditions | 0.123457 µM | 0.37037 µM | 1.11111 µM | 3.33333 µM | 10 µM
plate partner (at 0 µM): Mitoxantrone | 82.9 | 80.8 | 89 | 87.5 | 6.07
plate partner (at 0 µM): Vincristine | 103 | 105 | 104 | 83.4 | 7.17

CCC(=O)OCC(=O)[C@@]1(OC(=O)CC)[C@@H](C)C[C@H]2[C@@H]3CCC4=CC(=O)C=C[C@]4(C)[C@@]3(F)[C@@H](O)C[C@@]21C [Betamethasone dipropionate]
plate partner (at 0 µM): Ruxolitinib
Conditions | cell viability [%]
0.037037 µM | 111
0.111111 µM | 107
0.333333 µM | 113
1 µM | 112
3 µM | 108

CC(C)NCC(O)COc1ccc(CCOCC2CC2)cc1 (stereo not given) [Betaxolol (hydrochloride)]
plate partner (at 0 µM): Topotecan
Conditions | cell viability [%]
0.308642 µM | 101
0.925926 µM | 102
2.77778 µM | 103
8.33333 µM | 103
25 µM | 102

C[C@@H](NCCCc1cccc(C(F)(F)F)c1)c1cccc2ccccc12 [Cinacalcet (hydrochloride)]
plate partner (at 0 µM): Pralatrexate
Conditions | cell viability [%]
0.123457 µM | 98.2
0.37037 µM | 103
1.11111 µM | 96
3.33333 µM | 63.3
10 µM | 7.95

CCOC(=O)C(C)(C)Oc1ccc(Cl)cc1 [Clofibrate]
plate partner (at 0 µM): Crizotinib
Conditions | cell viability [%]
0.0308642 µM | 107
0.0925926 µM | 102
0.277778 µM | 108
0.833333 µM | 111
2.5 µM | 111

CN(C)CCCN1c2ccccc2CCc2ccc(Cl)cc21 [Clomipramine (hydrochloride)]
cell viability [%]
Conditions | 0.123457 µM | 0.37037 µM | 1.11111 µM | 3.33333 µM | 10 µM
plate partner (at 0 µM): Carmustine | 99.1 | 108 | 109 | 111 | 83.3
plate partner (at 0 µM): Erlotinib | 110 | 119 | 114 | 109 | 90.3
plate partner (at 0 µM): Pazopanib | 87.4 | 80.4 | 85.1 | 79.2 | 70.7

Clc1cccc(Cl)c1NC1=NCCN1 [Clonidine]
plate partner (at 0 µM): Mitoxantrone
Conditions | cell viability [%]
0.0123457 µM | 93.2
0.037037 µM | 101
0.111111 µM | 96.2
0.333333 µM | 96
1 µM | 93.6

CN1CCN(C2=Nc3cc(Cl)ccc3Nc3ccccc32)CC1 [Clozapine]
cell viability [%]
Conditions | 0.123457 µM | 0.37037 µM | 1.11111 µM | 3.33333 µM | 10 µM
plate partner (at 0 µM): Vinblastine | 105 | 102 | 96.8 | 104 | 101
plate partner (at 0 µM): Vincristine | 97.6 | 89.5 | 95.5 | 94.7 | 87.2

COc1cc2ncnc(Nc3ccc(F)c(Cl)c3)c2cc1NC(=O)/C=C/CN1CCCCC1 [Dacomitinib]
cell viability [%]
Conditions | 0.246914 µM | 0.740741 µM | 2.22222 µM | 6.66667 µM | 20 µM
plate partner (at 0 µM): Cabazitaxel | 101 | 91.7 | 95.1 | 37.4 | 2.74
plate partner (at 0 µM): Pazopanib | 96.5 | 97.6 | 89.4 | 35.6 | 0.871
plate partner (at 0 µM): ixabepilone | 101 | 102 | 90.3 | 33.2 | 0.896

NCCc1ccc(O)c(O)c1 [Dopamine HCl]
plate partner (at 0 µM): Letrozole
Conditions | cell viability [%]
0.123457 µM | 119
0.37037 µM | 112
1.11111 µM | 114
3.33333 µM | 108
10 µM | 105.8

C[C@]12C=CC(=O)N[C@@H]1CC[C@@H]1[C@@H]2CC[C@]2(C)[C@@H](C(=O)Nc3cc(C(F)(F)F)ccc3C(F)(F)F)CC[C@@H]12 [Dutasteride]
plate partner (at 0 µM): Mitoxantrone
Conditions | cell viability [%]
0.617284 µM | 97.7
1.85185 µM | 99.1
5.55556 µM | 93.9
16.6667 µM | 76.6
50 µM | 43.3

Nc1ccccc1NC(=O)c1ccc(CNC(=O)OCc2cccnc2)cc1 [Entinostat]
plate partner (at 0 µM): Abiraterone
Conditions | cell viability [%]
0.0740741 µM | 98
0.222222 µM | 96.3
0.666667 µM | 87.5
2 µM | 68.5
6 µM | 37.5

CNC[C@H](O)c1ccc(O)c(O)c1 [Epinephrine HCl]
plate partner (at 0 µM): Vandetanib
Conditions | cell viability [%]
0.0740741 µM | 97.3
0.222222 µM | 108
0.666667 µM | 101
2 µM | 94.8
6 µM | 69.1

Cc1ncc(NC(=O)c2ccc(CN3CCN(C)CC3)c(C(F)(F)F)c2)cc1Nc1nccc(-c2cccnc2)n1 [Flumatinib (mesylate)]
cell viability [%]
Conditions | plate partner (at 0 µM): Cabazitaxel | plate partner (at 0 µM): Imatinib | plate partner (at 0 µM): Lapatinib | plate partner (at 0 µM): Methotrexate | plate partner (at 0 µM): Mitoxantrone | plate partner (at 0 µM): Pazopanib | plate partner (at 0 µM): Vinblastine | plate partner (at 0 µM): Vincristine
0.617284 µM | 102 | 103 | 88.8 | 96.2 | 100 | 90.7 | 87.5 | 107
1.85185 µM | 106 | 102 | 96 | 95.1 | 102 | 91 | 80.3 | 95.8
5.55556 µM | 105 | 97.3 | 98.8 | 96 | 99.8 | 94.9 | 88.2 | 84.7
16.6667 µM | 2.5 | 1.19 | 0.876 | 1.18 | 3.84 | 1.36 | 4.26 | 4.97
50 µM | 0.824 | 0.647 | 0.4325 | 0.443 | 0.82 | 0.386 | 1.71 | 1.64

COc1cc2c(Oc3ccc(NC(=O)C4(C(=O)Nc5ccc(F)cc5)CC4)cc3F)ccnc2cc1OCCCN1CCOCC1 [Foretinib]
cell viability [%]
Conditions | 0.348765 µM | 1.0463 µM | 3.13889 µM | 9.41667 µM | 28.25 µM
plate partner (at 0 µM): Cabazitaxel | 103 | 88.4 | 59.6 | 20.5 | 1.29
plate partner (at 0: 5-Fluorouracil µM | 83.6 | 61.7 | 30.6 | 4.72 | 2.47

NS(=O)(=O)c1cc2c(cc1Cl)NCNS2(=O)=O [Hydrochlorothiazide]
plate partner (at 0 µM): Gefitinib
Conditions | cell viability [%]
0.0246914 µM | 113
0.0740741 µM | 115
0.222222 µM | 113
0.666667 µM | 106
2 µM | 107

N#CCC1(n2cc(-c3ncnc4[nH]ccc34)cn2)CN(C2CCN(C(=O)c3ccnc(C(F)(F)F)c3F)CC2)C1 [Itacitinib]
cell viability [%]
Conditions | 0.185185 µM | 0.555556 µM | 1.66667 µM | 5 µM | 15 µM
plate partner (at 0 µM): Cabazitaxel | 90.1 | 93.1 | 99.5 | 90.9 | 91.3
plate partner (at 0 µM): Lenalidomide | 112 | 110 | 114 | 115 | 104
